From patent US20230181580A1, “TREATMENT OF PROLIFERATIVE DISEASES OF THE CNS” (AUCENTRA THERAPEUTICS PTY LTD, priority 2020, published 2023)
For some assays here: At least one read-out could not be matched to a standard name with certainty. For some assays here: For at least one compound, name, drawing or mass did not settle the structure.

Tests used:
[1] = Brain uptake assay; assay type: in vivo; details: Balb/C mice, 2 mg/kg intravenous or 10 mg/kg oral, vs palbociclib and/or abemaciclib
[2] = tested on: phosphorylated Rb proteins (pRb Ser780, pRbSer795, pRb807/811); experiment: Western blot analysis of Rb phosphorylation; assay type: cell-based; details: 24 h treatment, FIG. 3A
Protocol: Cells were seeded at a density of 3×10^5 with 10 mL fresh medium on a sterile culture dish and incubated at 37° C. 5% CO2 for overnight prior to compound treatment. After 24 h, cells were harvested with PBS, centrifuged at 300×g for 5 mins, and lysed with 100 μL lysis buffer (25 mM 4-(2-hydroxyethyl)-1-piperazineethanesulphonic acid, 300 mM sodium chloride, 1.5 mM magnesium chloride, 0.5% sodium deoxycholate, 20 mM p-glycerophosphate, 1% Triton X-100, 0.1% sodium dodecyl sulphate, 0.2 mM EDTA, 0.5 mM dithiothreitol, 1 mM sodium orthovanadate and 25× protease inhibitor cocktail). Protein lysate was collected after 10 mins of maximum speed centrifugation at 4° C. The protein concentration of cell lysates was determined through performing a BSA standard curve using the Bio-Rad DC protein assay kit II (Bio-Rad, Sydney, NSW, Australia) according to the manufacturer's protocol. 30 μg protein was measured, mixed with 3× loading buffer and denatured at 95° C. for 5 mins using T100 thermal cycler (Bio-Rad). Molecular mass of each sample was then separated by gel electrophoresis on a 4-20% polyacrylamide gel at 120V for 1 h. The resolved proteins were transferred onto nitrocellulose membranes and blocked with 5% skimmed milk in Tris-buffered saline and Tween 20 (TBST) for 1 h at room temperature. […] Band intensity was determined using a ChemiDoc™ multiplexing imaging system (Bio-Rad). […]

SMILES | propensity to cross the BBB (Kp,u brain to plasma ratio of unbound drug) [1] | propensity to cross the BBB (Kp,u brain to plasma ratio of unbound drug) ([1]; listed as compound 2) | propensity to cross the BBB (Kp,u brain to plasma ratio of unbound drug) ([1]; listed as compound 6) | level of phosphorylated Rb proteins [2]
CCN1CCN(Cc2ccc(Nc3ncc(F)c(-c4sc(NC5CCCC5)nc4C)n3)nc2)CC1 [Compound 2, N-cyclopentyl-5-(2-((5-((4-ethylpiperazin-1-yl)methyl)pyridin-2-yl)amino)-5-fluoropyrimidin-4-yl)-4-methylthiazol-2-amine] | significantly greater propensity to cross the BBB than the control anti-cancer agents | capable of crossing the blood brain barrier |  | 
CCN1CCN(Cc2ccc(Nc3nccc(-c4sc(NC5CCCC5)nc4C)n3)nc2)CC1 [Compound 6, N-cyclopentyl-5-(2-((5-((4-ethylpiperazin-1-yl)methyl)pyridin-2-yl)amino)pyrimidin-4-yl)-4-methylthiazol-2-amine] | significantly greater propensity to cross the BBB than the control anti-cancer agents |  | capable of crossing the blood brain barrier | 
CC(=O)c1c(C)c2cnc(Nc3ccc(N4CCNCC4)cn3)nc2n(C2CCCC2)c1=O [palbociclib, reference compound] |  |  |  | reduces the level of phosphorylated Rb proteins
